Measured values reported in the supplement of paper PMC11006884.
The entries are a selection whose mix differs from that of the whole data set. This is a noisy data set.

Amino acid sequences for entries named in this document (tags omitted). A change or cut given only in a name is not applied to a line headed by its entry.
UniProt Q92499: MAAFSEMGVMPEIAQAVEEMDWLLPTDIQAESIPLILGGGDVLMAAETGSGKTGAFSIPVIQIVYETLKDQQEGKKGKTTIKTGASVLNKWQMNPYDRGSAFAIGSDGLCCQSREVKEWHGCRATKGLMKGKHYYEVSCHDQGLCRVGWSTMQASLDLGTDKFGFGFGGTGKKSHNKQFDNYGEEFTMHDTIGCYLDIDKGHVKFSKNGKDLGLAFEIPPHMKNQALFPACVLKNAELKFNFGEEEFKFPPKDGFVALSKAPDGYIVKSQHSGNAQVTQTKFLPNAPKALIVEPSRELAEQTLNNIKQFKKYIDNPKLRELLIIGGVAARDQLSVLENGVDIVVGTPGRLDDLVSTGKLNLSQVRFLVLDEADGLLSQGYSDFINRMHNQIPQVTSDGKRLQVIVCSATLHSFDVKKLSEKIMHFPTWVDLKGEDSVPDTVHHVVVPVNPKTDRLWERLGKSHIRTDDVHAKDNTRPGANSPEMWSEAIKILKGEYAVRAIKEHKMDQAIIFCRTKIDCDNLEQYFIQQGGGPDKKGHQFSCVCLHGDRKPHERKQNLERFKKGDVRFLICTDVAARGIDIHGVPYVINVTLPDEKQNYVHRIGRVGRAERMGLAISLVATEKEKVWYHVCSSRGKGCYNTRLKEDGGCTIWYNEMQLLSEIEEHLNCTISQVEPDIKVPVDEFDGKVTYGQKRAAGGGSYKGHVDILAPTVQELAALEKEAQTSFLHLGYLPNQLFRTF
UniProt Q8NFI3: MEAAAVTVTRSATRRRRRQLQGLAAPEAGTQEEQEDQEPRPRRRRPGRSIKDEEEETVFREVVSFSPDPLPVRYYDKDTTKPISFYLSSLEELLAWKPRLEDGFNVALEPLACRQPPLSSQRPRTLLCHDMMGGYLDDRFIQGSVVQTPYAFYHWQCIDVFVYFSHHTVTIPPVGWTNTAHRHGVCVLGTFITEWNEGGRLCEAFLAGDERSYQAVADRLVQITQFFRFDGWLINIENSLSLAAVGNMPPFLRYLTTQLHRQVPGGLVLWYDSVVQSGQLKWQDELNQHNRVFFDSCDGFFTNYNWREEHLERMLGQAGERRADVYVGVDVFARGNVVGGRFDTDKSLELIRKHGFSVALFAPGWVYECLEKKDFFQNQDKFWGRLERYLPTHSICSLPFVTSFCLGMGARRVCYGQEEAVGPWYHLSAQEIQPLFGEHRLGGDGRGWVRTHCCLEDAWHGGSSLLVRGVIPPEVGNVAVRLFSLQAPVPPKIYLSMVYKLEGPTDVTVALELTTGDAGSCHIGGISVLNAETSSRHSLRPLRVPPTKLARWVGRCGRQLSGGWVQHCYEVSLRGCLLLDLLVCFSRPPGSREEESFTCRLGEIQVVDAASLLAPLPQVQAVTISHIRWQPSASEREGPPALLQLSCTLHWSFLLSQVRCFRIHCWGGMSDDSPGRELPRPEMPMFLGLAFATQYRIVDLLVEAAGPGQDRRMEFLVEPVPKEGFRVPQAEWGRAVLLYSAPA
UniProt Q8N5A5: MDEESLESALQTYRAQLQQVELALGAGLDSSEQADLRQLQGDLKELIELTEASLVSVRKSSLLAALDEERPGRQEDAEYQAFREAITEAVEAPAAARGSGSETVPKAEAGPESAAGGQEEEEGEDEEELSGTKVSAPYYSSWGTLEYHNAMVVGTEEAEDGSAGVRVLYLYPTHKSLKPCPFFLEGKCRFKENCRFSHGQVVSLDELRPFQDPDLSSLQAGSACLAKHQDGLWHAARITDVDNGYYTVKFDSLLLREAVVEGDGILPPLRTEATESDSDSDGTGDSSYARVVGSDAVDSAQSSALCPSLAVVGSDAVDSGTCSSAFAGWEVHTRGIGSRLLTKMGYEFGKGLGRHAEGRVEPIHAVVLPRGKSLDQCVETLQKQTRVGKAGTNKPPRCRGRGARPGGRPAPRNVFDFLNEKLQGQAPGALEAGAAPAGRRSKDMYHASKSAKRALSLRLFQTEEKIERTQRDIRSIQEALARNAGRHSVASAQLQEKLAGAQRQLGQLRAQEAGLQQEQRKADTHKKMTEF
UniProt Q8N9N5: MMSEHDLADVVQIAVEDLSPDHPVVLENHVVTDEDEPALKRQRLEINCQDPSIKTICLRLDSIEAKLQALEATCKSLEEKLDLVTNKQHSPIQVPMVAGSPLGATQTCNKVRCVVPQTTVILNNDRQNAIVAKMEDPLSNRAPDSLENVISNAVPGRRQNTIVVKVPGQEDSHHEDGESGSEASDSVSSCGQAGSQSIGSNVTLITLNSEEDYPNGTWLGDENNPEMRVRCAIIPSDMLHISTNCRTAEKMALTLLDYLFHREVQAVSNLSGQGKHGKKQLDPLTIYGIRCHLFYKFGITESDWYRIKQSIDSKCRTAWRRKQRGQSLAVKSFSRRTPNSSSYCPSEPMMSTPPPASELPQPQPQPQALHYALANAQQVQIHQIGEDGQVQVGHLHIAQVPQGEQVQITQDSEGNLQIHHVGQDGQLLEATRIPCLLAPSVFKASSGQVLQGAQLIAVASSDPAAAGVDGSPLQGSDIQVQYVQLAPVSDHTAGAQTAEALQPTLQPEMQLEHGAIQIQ
UniProt Q8NDT2: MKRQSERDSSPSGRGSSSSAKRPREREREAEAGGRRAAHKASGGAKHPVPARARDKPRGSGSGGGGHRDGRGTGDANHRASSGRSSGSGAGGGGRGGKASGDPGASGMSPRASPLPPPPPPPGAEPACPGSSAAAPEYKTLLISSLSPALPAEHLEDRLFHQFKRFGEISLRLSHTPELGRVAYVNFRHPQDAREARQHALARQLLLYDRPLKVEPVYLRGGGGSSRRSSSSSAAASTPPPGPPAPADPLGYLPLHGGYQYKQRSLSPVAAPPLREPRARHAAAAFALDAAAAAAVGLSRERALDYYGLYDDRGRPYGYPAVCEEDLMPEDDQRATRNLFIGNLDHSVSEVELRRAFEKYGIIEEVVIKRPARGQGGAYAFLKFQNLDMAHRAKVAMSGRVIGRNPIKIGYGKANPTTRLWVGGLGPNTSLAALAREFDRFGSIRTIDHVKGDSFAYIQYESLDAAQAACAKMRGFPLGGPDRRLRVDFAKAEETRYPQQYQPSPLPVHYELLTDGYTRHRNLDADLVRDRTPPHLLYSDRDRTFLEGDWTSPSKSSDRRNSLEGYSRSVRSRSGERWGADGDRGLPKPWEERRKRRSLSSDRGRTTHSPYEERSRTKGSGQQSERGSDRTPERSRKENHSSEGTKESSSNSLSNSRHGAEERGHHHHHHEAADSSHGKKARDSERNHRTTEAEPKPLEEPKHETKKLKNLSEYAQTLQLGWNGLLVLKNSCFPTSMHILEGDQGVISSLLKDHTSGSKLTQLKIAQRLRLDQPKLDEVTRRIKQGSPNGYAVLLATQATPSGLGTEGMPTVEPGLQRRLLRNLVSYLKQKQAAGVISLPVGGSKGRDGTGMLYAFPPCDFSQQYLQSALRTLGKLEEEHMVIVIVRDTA
UniProt Q8N8A6: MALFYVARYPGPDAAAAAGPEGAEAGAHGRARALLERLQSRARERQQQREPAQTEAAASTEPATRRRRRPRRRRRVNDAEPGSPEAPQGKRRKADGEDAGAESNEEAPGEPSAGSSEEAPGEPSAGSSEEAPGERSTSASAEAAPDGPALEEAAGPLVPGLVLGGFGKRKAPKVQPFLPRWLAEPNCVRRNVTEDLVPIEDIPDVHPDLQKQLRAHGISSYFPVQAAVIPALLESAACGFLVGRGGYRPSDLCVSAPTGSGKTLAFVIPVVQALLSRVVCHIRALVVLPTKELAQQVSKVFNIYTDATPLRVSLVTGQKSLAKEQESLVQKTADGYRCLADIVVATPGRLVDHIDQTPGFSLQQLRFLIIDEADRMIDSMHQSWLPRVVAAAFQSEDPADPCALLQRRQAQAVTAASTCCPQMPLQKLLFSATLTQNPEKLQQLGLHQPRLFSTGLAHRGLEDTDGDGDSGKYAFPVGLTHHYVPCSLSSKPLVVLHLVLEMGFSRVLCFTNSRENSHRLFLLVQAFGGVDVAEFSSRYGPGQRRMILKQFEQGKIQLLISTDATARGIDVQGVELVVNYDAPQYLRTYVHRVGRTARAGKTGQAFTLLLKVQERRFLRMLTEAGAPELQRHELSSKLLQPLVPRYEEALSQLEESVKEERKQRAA
UniProt Q8ND24: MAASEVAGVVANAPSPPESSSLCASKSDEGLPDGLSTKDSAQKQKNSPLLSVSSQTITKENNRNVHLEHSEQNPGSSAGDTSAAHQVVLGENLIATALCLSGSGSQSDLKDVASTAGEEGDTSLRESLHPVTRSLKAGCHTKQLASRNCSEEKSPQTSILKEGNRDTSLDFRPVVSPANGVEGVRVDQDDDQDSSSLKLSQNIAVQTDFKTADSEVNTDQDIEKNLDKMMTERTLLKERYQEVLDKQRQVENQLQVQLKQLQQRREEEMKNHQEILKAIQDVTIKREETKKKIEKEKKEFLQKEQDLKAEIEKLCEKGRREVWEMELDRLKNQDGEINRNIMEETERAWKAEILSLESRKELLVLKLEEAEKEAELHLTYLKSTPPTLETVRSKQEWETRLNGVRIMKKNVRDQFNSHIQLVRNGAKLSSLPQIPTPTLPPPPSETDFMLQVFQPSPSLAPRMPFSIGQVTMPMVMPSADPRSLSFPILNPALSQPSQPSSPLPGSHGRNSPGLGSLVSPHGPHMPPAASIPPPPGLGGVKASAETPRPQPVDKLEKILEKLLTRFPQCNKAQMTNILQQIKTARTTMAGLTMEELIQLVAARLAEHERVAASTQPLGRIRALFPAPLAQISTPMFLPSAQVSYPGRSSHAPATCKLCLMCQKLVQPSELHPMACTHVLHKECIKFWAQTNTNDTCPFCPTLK
UniProt Q8N5F7: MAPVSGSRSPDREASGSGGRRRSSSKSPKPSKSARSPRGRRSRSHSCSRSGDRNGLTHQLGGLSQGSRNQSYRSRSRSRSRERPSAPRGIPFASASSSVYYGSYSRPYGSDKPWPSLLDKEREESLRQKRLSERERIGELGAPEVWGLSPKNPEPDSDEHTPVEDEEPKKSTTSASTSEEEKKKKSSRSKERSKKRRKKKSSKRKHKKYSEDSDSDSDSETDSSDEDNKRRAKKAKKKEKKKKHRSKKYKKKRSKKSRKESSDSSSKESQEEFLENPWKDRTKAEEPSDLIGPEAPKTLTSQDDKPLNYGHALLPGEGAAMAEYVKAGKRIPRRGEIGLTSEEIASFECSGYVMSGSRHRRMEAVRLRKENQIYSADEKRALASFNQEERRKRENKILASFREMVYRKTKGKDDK
UniProt Q8N5U6: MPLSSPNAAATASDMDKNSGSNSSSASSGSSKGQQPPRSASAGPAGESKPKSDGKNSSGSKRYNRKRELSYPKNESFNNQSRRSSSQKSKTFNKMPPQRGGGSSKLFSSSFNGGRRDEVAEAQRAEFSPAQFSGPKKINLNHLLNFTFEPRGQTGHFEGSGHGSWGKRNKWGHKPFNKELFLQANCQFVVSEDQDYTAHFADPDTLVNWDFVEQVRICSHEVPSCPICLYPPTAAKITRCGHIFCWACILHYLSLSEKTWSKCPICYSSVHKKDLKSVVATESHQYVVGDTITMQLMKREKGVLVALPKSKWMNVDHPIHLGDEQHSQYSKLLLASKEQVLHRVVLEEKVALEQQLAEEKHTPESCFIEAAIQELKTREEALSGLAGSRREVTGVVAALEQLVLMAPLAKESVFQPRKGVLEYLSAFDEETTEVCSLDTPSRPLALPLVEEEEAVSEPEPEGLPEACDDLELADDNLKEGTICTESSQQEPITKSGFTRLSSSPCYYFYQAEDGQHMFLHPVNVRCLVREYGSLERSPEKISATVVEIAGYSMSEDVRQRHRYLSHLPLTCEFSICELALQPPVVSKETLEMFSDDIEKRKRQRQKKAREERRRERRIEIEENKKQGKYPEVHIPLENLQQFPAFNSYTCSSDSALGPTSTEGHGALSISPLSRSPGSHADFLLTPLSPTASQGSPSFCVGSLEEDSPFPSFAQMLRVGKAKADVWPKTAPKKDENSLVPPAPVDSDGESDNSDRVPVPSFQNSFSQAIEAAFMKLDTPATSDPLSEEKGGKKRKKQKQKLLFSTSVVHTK
UniProt Q8N6T3: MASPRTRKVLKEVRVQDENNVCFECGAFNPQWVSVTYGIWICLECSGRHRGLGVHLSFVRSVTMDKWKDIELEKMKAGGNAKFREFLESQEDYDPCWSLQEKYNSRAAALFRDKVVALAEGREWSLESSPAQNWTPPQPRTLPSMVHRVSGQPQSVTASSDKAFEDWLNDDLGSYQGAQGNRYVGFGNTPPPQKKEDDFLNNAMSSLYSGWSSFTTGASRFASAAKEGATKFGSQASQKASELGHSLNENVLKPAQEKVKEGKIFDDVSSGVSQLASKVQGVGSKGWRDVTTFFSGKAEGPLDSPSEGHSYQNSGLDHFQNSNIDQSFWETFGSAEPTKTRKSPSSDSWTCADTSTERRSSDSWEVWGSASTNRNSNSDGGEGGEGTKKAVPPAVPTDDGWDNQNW
UniProt Q8WXD5: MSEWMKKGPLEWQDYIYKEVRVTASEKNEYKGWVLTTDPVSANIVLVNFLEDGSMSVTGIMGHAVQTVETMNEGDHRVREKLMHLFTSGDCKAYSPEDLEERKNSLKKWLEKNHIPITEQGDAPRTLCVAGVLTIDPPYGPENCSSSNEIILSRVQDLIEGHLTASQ

compound: COC(=O)/C=C/c1ccccc1 [methyl cinnamate]; assay: log2 ratio of iodoacetamide-alkyne labeling of the cysteine site, DMSO over compound (competition); higher = stronger covalent engagement of the cysteine by the compound, active = 1 or more; conditions: 500 µM; treatment time 1 h; system: HEK293T cell lysate
How it was run: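 HEK293T lysate at 2 mg/mL was treated with vehicle or electrophile (500 µM) for 1 h at ambient temperature, then labelled with iodoacetamide alkyne (1 h), clicked to sCIP-TMT reagents, pooled, digested with trypsin overnight at 37 °C, enriched on streptavidin and eluted with acid. Peptides were analysed by Orbitrap Eclipse LC-MS/MS with FAIMS and quantified in FragPipe, using duplicate channels and three replicates, with cysteines quantified in only one replicate excluded. The log2 competition ratio for each cysteine is the mean control-channel reporter intensity divided by the mean compound-channel reporter intensity.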

log2 ratio of iodoacetamide-alkyne labeling, inactive:
DDX1 C231 (UniProt Q92499) 0.126
CHTF18 C542 (UniProt Q8WVB6) -0.0263
ENAH C7 (UniProt Q8N8S7) 0.166
ARFGAP2 C79 (UniProt Q8N6H7) 0.178
SUPT20H C255 (UniProt Q8NEM7) 0.16
IPO4 C95 (UniProt Q8TEX9) 0.777
ENGASE C113 (UniProt Q8NFI3) -0.0431
ATG4A C217 (UniProt Q8WYN0) 0.177
PREX1 C52 (UniProt Q8TCU6) -0.127
ZGPAT C377 (UniProt Q8N5A5) 0.244
BANP C113 (UniProt Q8N9N5) 0.326
EHBP1 C672 (UniProt Q8NDI1) 0.495
TXNDC5 C89 (UniProt Q8NBS9) -0.00739
RBM15B C128 (UniProt Q8NDT2) 0.256
SUPT20H C298 (UniProt Q8NEM7) 0.294
NPLOC4 C208 (UniProt Q8TAT6) 0.104
ZNF687 C1086 (UniProt Q8N1G0) 0.0152
LRRC47 C164 (UniProt Q8N1G4) -0.105
DNAJB14 C192 (UniProt Q8TBM8) -0.303
DDX51 C338 (UniProt Q8N8A6) 0.132
ZNF280C C530 (UniProt Q8ND82) 0.138
RNF214 C149 (UniProt Q8ND24) 0.212
RDH10 C272 (UniProt Q8IZV5) 0.117
GADD45GIP1 C124 (UniProt Q8TAE8) 0.139
UniProt Q8N163_C644 0.00694
NKAP C349 (UniProt Q8N5F7) 0.0588
SYNE2 C1235 (UniProt Q8WXH0) 0.0451
PIAS4 C164 (UniProt Q8N2W9) 0.114
RNF10 C483 (UniProt Q8N5U6) 0.316
PPP4R1 C261 (UniProt Q8TF05) 0.165
ARFGAP1 C96 (UniProt Q8N6T3) 0.217
RNF214 C655 (UniProt Q8ND24) 0.24
GEMIN6 C128 (UniProt Q8WXD5) 0.185
SETD7 C200 (UniProt Q8WTS6) 0.209
UniProt Q8NB37_C179 0.175
UniProt Q8WYQ9_C159 0.0694
UniProt Q8N8U9_C189 0.186

3 records drawn at random from those above, as already listed:
log2 ratio of iodoacetamide-alkyne labeling, inactive:
NKAP C349 (UniProt Q8N5F7) 0.0588
RNF214 C655 (UniProt Q8ND24) 0.24
DDX1 C231 (UniProt Q92499) 0.126
